According to patent US9642922B2, “Caspase-triggered nano-aggregation probes and methods of use” (The Board of Trustees of the Leland Stanford Junior …, priority 2013, dated 2017):
Some results were stated once for a whole list of compounds, not compound by compound. For at least one compound, name, drawing or mass did not settle the structure.

Tests used:
[1] = Stability of PET tracers in human serum; assay type: in vitro ADME; details: 2 h incubation at 37° C.
[2] = Integrity of fluorescent probes in mouse serum; assay type: in vitro ADME

| Structure (SMILES) | intact tracer in human serum [1] | half-life in mouse serum [2] |
| --- | --- | --- |
| CCSSCC(NC(=O)[C@H](CC(=O)O)NC(=O)[C@@H](NC(=O)[C@H](CCC(=O)O)NC(=O)[C@H](CC(=O)O)NC(C)=O)C(C)C)C(=O)NC(Cc1cn(CCOCC[18F])nn1)C(=O)Nc1ccc2nc(C3=N[C@@H](C(=O)NCCCOc4ccc5nc(C#N)ccc5c4)CS3)sc2c1 (stereo partly shown) [[^18F]C-SNAT] | more than 90% | – |
| CC[N+]1=C(C=CC=CC=C2N(CCCCCC(=O)NCCCCC(NC(=O)C(CSC)NC(=O)C(CC(=O)O)NC(=O)C(NC(=O)C(CCC(=O)O)NC(=O)C(CC(=O)O)NC(C)=O)C(C)C)C(=O)Nc3ccc4nc(C5=NC(C(=O)NCCCOc6ccc7ncccc7c6)CS5)sc4c3)c3ccc4c(S(=O)(=O)O)cc(S(=O)(=O)O)cc4c3C2(C)C)C(C)(C)c2c1ccc1c(S(=O)(=O)O)cc(S(=O)(=O)[O-])cc21 [L-ctrl] | – | more than 6 h |
| CSCC(NC(=O)C(CC(=O)O)NC(=O)C(NC(=O)C(CCC(=O)O)NC(=O)C(CC(=O)O)NC(C)=O)C(C)C)C(=O)NC(Cc1cn(CCOCCOCCOCC[18F])nn1)C(=O)Nc1ccc2nc(C3=NC(C(=O)NCCCOc4ccc5ncccc5c4)CS3)sc2c1 (stereo not shown) [1-D] | more than 90% | – |
| CC[N+]1=C(C=CC=CC=C2N(CCCCCC(=O)NCCCCC(NC(=O)C(CSC)NC(=O)C(CC(=O)O)NC(=O)C(NC(=O)C(CCC(=O)O)NC(=O)C(CC(=O)O)NC(C)=O)C(C)C)C(=O)Nc3ccc4nc(C5=NC(C(=O)NCCCOc6ccc7ncccc7c6)CS5)sc4c3)c3ccc4c(S(=O)(=O)O)cc(S(=O)(=O)O)cc4c3C2(C)C)C(C)(C)c2c1ccc1c(S(=O)(=O)O)cc(S(=O)(=O)[O-])cc21 [D-ctrl] | – | more than 6 h |
